From US20260131324A1, “A CONTAINER FOR IN VITRO DRUG TESTING” (National University of Singapore, priority 2022, published 2026)
Some values come without a unit; they compare only within their column.

Assay: Proof-of-concept model: diffusion through agarose hydrogel container (version 1.0) in modified flow-through cell
Type: physicochemical
Conditions: m-cresol in Actrapid vs m-cresol in Apidra
Description: FIG. 4A illustrates a hydrogel container 402 (left) and a modified flow-through cell 404 (right) used as a proof-of-concept model for the diffusion experiment shown in the first flow chart 300A of FIG. 3. The proof-of-concept model was designed to affirm the discriminative power of an agarose hydrogel under continuous media flow. Serving as a physicochemical barrier between drug and media, it is supposed to generate data ascertaining differences in diffusion behaviour and gel interaction of closely related drug formulations. For this, Actrapid® (regular human insulin, hexamer) and Apidra® (insulin glulisine) were chosen as model peptide formulations for the initial setup. m-Cresol, present in both formulations, was quantified as well, serving as an internal standard.
A cylindrical gel that forms both the physicochemical barrier and pocket was prepared with the help of custom-made plastic receptacles. The gel consists of 2% (w/w) agarose dissolved in PBS. […] After cooling at room temperature, the gel is formed and ready to use. […]
FIG. 4B illustrates an assay setup for the proof-of-concept model of FIG. 4A for in vitro drug testing. […] Quantification of insulin and m-cresol in the medium was then carried out by HPLC. Subsequently, the cumulative diffusion of the model drugs was calculated by comparing the diffused amount with the initially added drug concentration. […]

SMILES: Cc1cccc(O)c1 [m-cresol, m-Cresol]
- difference factor f1 of m-cresol diffusion profiles: 5
- similarity factor f2 of m-cresol diffusion profiles: 71
